{"sequences": {"note": "Sequences of proteins named here, by UniProt entry; tags and fusion partners are left off. A change or cut given only in a name is not applied to a line headed by its entry.", "UniProt P09874, whole entry, looked up": "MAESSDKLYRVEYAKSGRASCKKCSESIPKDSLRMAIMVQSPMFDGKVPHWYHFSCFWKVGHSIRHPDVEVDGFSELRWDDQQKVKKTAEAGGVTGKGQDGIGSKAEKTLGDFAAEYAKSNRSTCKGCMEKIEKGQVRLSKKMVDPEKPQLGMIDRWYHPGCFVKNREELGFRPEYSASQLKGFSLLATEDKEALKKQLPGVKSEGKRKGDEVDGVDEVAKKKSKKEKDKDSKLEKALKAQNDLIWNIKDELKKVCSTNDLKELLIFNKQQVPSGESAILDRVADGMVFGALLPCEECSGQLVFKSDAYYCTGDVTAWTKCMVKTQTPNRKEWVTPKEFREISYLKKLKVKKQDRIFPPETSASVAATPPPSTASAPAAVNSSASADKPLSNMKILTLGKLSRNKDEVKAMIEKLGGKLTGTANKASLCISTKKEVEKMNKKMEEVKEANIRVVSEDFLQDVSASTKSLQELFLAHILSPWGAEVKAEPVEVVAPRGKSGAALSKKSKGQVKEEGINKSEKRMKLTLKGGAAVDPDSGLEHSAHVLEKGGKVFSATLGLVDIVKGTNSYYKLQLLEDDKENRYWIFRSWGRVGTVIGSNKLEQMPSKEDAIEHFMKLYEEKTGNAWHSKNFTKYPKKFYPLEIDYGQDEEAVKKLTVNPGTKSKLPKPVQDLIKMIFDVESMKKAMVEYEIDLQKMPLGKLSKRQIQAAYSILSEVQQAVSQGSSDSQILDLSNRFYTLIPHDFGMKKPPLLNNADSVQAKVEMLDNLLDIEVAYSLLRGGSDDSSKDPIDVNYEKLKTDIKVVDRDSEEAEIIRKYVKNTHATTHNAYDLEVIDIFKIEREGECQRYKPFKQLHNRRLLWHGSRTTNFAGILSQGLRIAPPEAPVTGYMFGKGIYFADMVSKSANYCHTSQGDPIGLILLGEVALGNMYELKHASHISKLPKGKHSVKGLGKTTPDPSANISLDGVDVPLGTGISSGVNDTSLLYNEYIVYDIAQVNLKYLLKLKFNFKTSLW", "UniProt P15927": "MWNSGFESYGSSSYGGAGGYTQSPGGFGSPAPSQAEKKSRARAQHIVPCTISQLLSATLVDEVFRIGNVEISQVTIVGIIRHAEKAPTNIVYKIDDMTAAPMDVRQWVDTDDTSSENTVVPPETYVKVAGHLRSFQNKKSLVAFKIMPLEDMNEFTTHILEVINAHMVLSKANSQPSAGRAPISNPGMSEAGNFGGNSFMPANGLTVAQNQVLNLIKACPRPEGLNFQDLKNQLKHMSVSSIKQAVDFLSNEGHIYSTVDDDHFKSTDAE", "UniProt P11586, whole entry, looked up": "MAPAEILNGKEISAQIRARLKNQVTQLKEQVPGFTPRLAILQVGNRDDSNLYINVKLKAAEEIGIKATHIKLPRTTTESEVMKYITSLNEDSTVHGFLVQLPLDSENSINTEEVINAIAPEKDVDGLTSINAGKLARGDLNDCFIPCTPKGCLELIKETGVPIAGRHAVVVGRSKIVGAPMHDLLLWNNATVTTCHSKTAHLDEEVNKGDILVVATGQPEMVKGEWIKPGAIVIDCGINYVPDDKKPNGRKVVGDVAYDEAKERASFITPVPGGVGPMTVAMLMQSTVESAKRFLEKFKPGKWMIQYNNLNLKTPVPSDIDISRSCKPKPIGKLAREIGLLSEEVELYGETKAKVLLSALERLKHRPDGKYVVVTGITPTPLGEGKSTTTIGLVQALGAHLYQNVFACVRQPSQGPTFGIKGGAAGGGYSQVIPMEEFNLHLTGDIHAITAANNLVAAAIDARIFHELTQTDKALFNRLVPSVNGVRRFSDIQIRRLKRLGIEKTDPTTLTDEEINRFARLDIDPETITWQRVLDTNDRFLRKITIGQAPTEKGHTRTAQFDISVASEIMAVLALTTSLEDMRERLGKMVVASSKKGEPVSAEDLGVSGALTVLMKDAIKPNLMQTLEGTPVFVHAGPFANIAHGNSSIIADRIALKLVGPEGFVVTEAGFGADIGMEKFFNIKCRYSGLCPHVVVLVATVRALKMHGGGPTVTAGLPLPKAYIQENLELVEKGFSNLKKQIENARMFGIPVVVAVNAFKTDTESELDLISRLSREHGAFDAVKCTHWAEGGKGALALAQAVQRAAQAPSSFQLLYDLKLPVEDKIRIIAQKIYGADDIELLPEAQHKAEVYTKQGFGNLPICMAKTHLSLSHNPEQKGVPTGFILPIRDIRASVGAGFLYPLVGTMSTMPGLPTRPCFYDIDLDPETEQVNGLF", "UniProt P14866": "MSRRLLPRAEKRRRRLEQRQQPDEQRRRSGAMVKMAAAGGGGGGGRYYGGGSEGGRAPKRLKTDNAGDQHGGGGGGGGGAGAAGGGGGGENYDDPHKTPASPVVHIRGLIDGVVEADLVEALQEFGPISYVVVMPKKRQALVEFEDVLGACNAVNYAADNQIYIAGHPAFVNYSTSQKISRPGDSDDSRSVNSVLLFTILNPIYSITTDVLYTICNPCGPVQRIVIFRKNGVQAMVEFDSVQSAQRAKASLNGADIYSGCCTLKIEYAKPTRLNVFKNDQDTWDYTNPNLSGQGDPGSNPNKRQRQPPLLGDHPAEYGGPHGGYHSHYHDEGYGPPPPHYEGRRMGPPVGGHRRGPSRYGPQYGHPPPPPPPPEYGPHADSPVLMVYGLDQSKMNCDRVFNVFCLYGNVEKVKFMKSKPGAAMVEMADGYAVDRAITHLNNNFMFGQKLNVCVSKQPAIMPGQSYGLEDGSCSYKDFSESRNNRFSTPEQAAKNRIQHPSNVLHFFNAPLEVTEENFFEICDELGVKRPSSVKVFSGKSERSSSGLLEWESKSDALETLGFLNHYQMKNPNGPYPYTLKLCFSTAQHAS", "UniProt P17844": "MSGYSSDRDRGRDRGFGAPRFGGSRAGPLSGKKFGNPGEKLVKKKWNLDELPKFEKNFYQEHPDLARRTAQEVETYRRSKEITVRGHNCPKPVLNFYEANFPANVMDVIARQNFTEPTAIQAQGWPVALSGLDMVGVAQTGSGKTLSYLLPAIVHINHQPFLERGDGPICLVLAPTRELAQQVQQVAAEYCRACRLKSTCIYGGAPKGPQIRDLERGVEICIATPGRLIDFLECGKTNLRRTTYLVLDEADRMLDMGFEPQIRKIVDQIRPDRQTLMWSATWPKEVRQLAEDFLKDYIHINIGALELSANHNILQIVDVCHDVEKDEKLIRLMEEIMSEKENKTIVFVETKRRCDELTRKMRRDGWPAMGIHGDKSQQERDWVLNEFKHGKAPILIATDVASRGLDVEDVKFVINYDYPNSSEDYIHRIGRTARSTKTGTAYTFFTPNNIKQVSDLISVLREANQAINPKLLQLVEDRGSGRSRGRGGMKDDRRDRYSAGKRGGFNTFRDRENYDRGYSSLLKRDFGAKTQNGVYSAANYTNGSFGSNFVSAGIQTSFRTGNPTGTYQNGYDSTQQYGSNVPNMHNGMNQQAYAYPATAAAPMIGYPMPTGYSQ", "UniProt P16930": "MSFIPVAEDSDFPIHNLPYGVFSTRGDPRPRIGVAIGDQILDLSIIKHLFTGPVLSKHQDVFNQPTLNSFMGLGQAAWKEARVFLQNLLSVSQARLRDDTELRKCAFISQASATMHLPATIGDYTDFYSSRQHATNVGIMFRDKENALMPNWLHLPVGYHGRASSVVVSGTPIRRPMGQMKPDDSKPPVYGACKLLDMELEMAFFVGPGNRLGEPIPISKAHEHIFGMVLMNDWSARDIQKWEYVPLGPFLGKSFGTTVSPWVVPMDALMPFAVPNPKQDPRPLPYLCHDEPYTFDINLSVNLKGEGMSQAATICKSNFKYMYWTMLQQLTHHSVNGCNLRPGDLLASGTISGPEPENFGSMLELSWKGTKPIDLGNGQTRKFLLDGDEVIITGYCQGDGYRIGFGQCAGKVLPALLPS", "UniProt P07948": "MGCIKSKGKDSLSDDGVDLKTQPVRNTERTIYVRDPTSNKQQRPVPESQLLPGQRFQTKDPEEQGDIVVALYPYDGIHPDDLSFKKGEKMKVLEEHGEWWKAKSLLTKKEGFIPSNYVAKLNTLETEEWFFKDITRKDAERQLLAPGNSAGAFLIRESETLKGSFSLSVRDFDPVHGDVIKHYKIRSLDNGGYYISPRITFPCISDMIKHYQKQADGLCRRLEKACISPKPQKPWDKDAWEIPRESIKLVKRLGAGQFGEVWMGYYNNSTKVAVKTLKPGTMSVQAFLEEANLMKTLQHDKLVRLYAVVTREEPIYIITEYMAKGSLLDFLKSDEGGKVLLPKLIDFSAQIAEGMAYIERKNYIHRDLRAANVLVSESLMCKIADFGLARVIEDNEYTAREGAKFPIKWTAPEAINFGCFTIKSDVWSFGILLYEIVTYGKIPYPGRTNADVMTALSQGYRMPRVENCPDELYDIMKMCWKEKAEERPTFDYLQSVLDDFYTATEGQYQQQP", "UniProt P07814": "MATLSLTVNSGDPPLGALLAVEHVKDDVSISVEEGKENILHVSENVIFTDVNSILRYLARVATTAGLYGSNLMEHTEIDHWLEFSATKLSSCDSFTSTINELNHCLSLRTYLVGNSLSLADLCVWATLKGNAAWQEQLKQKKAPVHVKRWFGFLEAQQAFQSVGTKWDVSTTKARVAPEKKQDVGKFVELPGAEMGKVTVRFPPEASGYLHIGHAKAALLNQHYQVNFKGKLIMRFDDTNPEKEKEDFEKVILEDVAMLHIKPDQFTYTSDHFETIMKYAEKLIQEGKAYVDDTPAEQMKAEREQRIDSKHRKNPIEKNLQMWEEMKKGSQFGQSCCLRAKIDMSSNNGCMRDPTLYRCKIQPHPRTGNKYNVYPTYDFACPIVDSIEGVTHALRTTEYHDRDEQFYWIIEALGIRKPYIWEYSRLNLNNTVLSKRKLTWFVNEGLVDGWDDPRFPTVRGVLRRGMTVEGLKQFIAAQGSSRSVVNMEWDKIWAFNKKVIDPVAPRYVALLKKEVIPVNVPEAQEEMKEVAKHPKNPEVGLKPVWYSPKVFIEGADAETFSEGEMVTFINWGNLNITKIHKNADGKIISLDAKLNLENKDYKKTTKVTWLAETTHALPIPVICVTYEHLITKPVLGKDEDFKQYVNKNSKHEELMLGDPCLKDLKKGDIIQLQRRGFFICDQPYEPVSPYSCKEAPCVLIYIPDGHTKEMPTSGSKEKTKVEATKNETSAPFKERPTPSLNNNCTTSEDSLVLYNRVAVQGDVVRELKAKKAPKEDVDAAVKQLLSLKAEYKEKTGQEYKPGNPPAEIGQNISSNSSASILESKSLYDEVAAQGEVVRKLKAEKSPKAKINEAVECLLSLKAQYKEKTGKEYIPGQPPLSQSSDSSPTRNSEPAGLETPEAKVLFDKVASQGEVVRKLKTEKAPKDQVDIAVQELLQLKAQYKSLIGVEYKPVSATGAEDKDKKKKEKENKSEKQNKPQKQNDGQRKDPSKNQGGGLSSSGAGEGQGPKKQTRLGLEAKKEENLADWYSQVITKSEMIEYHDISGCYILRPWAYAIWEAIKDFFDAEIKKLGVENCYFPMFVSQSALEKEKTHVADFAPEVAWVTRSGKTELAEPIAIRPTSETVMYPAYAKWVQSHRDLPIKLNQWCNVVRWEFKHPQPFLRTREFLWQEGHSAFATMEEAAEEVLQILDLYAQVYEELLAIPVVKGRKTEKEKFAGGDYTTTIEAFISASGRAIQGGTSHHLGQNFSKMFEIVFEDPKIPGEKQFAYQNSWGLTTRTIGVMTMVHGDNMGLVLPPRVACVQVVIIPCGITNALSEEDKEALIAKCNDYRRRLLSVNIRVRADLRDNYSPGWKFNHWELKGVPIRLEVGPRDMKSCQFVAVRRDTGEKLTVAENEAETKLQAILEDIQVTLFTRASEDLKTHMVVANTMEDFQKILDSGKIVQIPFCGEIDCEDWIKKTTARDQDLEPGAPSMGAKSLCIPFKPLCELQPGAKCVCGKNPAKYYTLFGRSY"}, "source": "the supplement of paper PMC11006884", "note": "The list shows a part of the results, in another mix than the full data.", "data": [{"compound": "COC(=O)C#Cc1ccccc1 [methyl 3-phenylpropiolate]", "assay": "log2 ratio of iodoacetamide-alkyne labeling of the cysteine site, DMSO over compound (competition); higher = stronger covalent engagement of the cysteine by the compound, active = 1 or more", "settings": "500 µM; treatment time 1 h; system: HEK293T cell lysate", "in_short": "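HEK293T lysate at 2 mg/mL was treated with vehicle or electrophile (500 µM) for 1 h at ambient temperature, then labelled with iodoacetamide alkyne (1 h), clicked to sCIP-TMT reagents, pooled, digested with trypsin overnight at 37 °C, enriched on streptavidin and eluted with acid. Peptides were analysed by Orbitrap Eclipse LC-MS/MS with FAIMS and quantified in FragPipe, using duplicate channels and three replicates, with cysteines quantified in only one replicate excluded. The log2 competition ratio for each cysteine is the mean control-channel reporter intensity divided by the mean compound-channel reporter intensity.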", "values": [{"target": "UniProt P17252_C499", "log2 ratio of iodoacetamide-alkyne labeling": "inactive: -0.0376"}, {"target": "PRKAR2A C101 (UniProt P13861)", "log2 ratio of iodoacetamide-alkyne labeling": "inactive: 0.533"}, {"target": "PARP1 C128 (UniProt P09874)", "log2 ratio of iodoacetamide-alkyne labeling": "inactive: 0.229"}, {"target": "RPA2 C219 (UniProt P15927)", "log2 ratio of iodoacetamide-alkyne labeling": "inactive: 0.0715"}, {"target": "MTHFD1 C918 (UniProt P11586)", "log2 ratio of iodoacetamide-alkyne labeling": "inactive: 0.134"}, {"target": "Q95604 C125 (UniProt P10321)", "log2 ratio of iodoacetamide-alkyne labeling": "inactive: 0.505"}, {"target": "PLS3 C104 (UniProt P13797)", "log2 ratio of iodoacetamide-alkyne labeling": "inactive: 0.669"}, {"target": "HNRNPL C261 (UniProt P14866)", "log2 ratio of iodoacetamide-alkyne labeling": "inactive: -0.314"}, {"target": "NFIC C88 (UniProt P08651)", "log2 ratio of iodoacetamide-alkyne labeling": "inactive: 0.217"}, {"target": "DDX5 C170 (UniProt P17844)", "log2 ratio of iodoacetamide-alkyne labeling": "inactive: 0.272"}, {"target": "FAH C105 (UniProt P16930)", "log2 ratio of iodoacetamide-alkyne labeling": "inactive: 0.289"}, {"target": "UniProt P10155_C71", "log2 ratio of iodoacetamide-alkyne labeling": "inactive: 0.136"}, {"target": "LYN C468 (UniProt P07948)", "log2 ratio of iodoacetamide-alkyne labeling": "inactive: -0.157"}, {"target": "EPRS C92 (UniProt P07814)", "log2 ratio of iodoacetamide-alkyne labeling": "inactive: 0.571"}, {"target": "ACAA1 C123 (UniProt P09110)", "log2 ratio of iodoacetamide-alkyne labeling": "inactive: -0.0075"}]}]}
